Source: patent publication US20240182460A1, “ALLOSTERIC CHROMENONE INHIBITORS OF PHOSPHOINOSITIDE 3-KINASE (PI3K) FOR THE TREATMENT OF DISEASE” (PETRA PHARMA CORPORATION, priority 2022, published 2024)
Some entries share one result that the patent states for a list of compounds.

Amino acid sequences for entries named in this document (tags omitted).
UniProt P42336, whole entry H1047R: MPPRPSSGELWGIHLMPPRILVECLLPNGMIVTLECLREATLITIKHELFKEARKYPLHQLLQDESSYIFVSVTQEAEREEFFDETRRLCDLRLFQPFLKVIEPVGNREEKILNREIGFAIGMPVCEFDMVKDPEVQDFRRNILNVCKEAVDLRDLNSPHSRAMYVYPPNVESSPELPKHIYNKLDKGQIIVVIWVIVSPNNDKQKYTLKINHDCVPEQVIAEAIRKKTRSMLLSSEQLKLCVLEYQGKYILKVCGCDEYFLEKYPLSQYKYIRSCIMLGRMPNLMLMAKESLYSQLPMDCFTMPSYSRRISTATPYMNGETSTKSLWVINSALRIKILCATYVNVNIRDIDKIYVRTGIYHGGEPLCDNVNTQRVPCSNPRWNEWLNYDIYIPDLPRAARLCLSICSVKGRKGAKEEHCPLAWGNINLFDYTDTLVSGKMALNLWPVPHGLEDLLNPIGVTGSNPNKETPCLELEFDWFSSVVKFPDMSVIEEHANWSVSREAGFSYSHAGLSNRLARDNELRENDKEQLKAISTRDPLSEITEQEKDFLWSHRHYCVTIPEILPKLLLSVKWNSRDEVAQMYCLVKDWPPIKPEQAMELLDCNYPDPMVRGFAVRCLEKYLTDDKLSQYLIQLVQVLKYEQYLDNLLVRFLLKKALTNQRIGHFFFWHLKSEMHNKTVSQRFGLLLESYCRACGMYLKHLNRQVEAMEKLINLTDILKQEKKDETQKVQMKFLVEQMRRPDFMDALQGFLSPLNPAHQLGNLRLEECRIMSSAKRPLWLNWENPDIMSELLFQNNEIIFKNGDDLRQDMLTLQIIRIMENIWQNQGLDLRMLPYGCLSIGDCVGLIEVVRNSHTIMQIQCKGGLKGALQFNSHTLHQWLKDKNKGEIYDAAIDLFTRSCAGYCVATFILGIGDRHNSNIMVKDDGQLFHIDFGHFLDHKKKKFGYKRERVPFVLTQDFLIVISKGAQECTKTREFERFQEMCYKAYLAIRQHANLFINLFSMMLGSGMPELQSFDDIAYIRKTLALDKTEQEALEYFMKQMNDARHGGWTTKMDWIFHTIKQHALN

What was measured:
[1] = Metabolic stability and intrinsic clearance in human hepatocytes (HEPS); type: in vitro ADME; details: human hepatocytes 0.5×10^6 cells/mL, 1 μM compound
PI3Kα H1047R = biological target: T1, PI3Kα H1047R (Homo sapiens, UniProt P42336, H1047R); assay: PI3Kα H1047R mutant in vitro cell based assay, MDA-MB-453 cells (AlphaLisa SureFire); details: IC50 in SKBR3 divided by IC50 in MDA-MB-453
T1 construct: The MDA-MB-453 (ATCC-HTB-131) cell line (PI3Kα H1047R); host or cells: MDA-MB-453
In short: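 MDA-MB-453 cells (endogenous PI3Kα H1047R) were treated for 3 h in serum-free MEM containing 1 μg/mL insulin, with 10-point 1:3 dilutions in 0.3% DMSO. Lysates were read by AlphaLisa SureFire. IC50 came from a 4-parameter logistic fit of duplicate % inhibition, normalized to DMSO (max) and 1 μM GDC-0032 (min).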

CYP3A4 = CYP3A4 induction in primary human hepatocytes (mRNA level and enzyme activity); type: in vitro ADME; details: compound at 1 μM, 72 hours of treatment

SMILES	intrinsic clearance in human HEPS [1]	fold-selectivity for PI3K-Alpha kinase H1047R mutant versus wild-type (PI3Kα H1047R)	CYP3A4 mRNA fold induction level (CYP3A4)
Cc1cc([C@@H](C)Oc2ccc(Cl)nc2-c2noc(=O)[nH]2)c2oc(-c3ccccc3)c(C)c(=O)c2c1 [Example 2, 3-[6-Chloro-3-[(1R)-1-(3,6-dimethyl-4-oxo-2-phenyl-chromen-8-yl)ethoxy]-2-pyridyl]-4H-1,2,4-oxadiazol-5-one]	less than 50 μL/min/1×10^6 cells	greater than 20 ×	
Cc1cc([C@@H](C)Oc2ccc(Cl)nc2C(N)=O)c2oc(-c3ccc4nn(C)cc4n3)c(C)c(=O)c2c1 [Example 141A, 6-Chloro-3-[(1R)-1-[3,6-dimethyl-2-(2-methylpyrazolo[4,3-b]pyridin-5-yl)-4-oxo-chromen-8-yl]ethoxy]pyridine-2-carboxamide]	less than 50 μL/min/1×10^6 cells		
Cc1cc([C@@H](C)Oc2ccc(Cl)nc2C(N)=O)c2oc(-c3cc4cn(C)nc4cn3)c(C)c(=O)c2c1 [Example 128A, 6-Chloro-3-[(1R)-1-[3,6-dimethyl-2-(2-methylpyrazolo[3,4-c]pyridin-5-yl)-4-oxo-chromen-8-yl]ethoxy]pyridine-2-carboxamide]	less than 50 μL/min/1×10^6 cells		less than 3.0 ×
Cc1cc([C@@H](C)Oc2ccc(Cl)nc2S(N)(=O)=O)c2oc(-c3ccccc3)c(C)c(=O)c2c1 [Example 13A, 6-Chloro-3-[(1R)-1-(3,6-dimethyl-4-oxo-2-phenyl-chromen-8-yl)ethoxy]pyridine-2-sulfonamide]	less than 50 μL/min/1×10^6 cells		
Cc1cc([C@@H](C)Oc2ccc(C#N)cc2C(N)=O)c2oc(-c3ccc4nn(C)cc4c3)c(C)c(=O)c2c1 [Example 108C, 5-Cyano-2-[(1R)-1-[3,6-dimethyl-2-(2-methylindazol-5-yl)-4-oxo-chromen-8-yl]ethoxy]benzamide]	less than 50 μL/min/1×10^6 cells		
Cc1cc([C@@H](C)Oc2ccc(Cl)nc2NS(C)(=O)=O)c2oc(-c3cnn(C)c3)c(C)c(=O)c2c1 [Example 149A, N-[6-Chloro-3-[(1R)-1-[3,6-dimethyl-2-(1-methylpyrazol-4-yl)-4-oxo-chromen-8-yl]ethoxy]-2-pyridyl]methanesulfonamide]	less than 50 μL/min/1×10^6 cells		
Cc1cc([C@@H](C)Oc2ccc(Cl)nc2C(N)=O)c2oc(-c3cnc4ccnn4c3)c(C)c(=O)c2c1 [Example 132A, 6-Chloro-3-[(1R)-1-(3,6-dimethyl-4-oxo-2-pyrazolo[1,5-a]pyrimidin-6-yl-chromen-8-yl)ethoxy]pyridine-2-carboxamide]	less than 50 μL/min/1×10^6 cells		less than 3.0 ×
Cc1cc([C@@H](C)Oc2cccnc2-c2noc(=O)[nH]2)c2oc(-c3ccccc3)c(C)c(=O)c2c1 [Example 3, 3-[3-[(1R)-1-(3,6-Dimethyl-4-oxo-2-phenyl-chromen-8-yl)ethoxy]-2-pyridyl]-4H-1,2,4-oxadiazol-5-one]	less than 50 μL/min/1×10^6 cells		
Cc1cc([C@@H](C)Oc2ccc(Cl)nc2C(=O)NS(C)(=O)=O)c2oc(-c3ccccc3)c(C)c(=O)c2c1 [Example 6, 6-Chloro-3-[(1R)-1-(3,6-dimethyl-4-oxo-2-phenyl-chromen-8-yl)ethoxy]-N-methylsulfonyl-pyridine-2-carboxamide]	less than 50 μL/min/1×10^6 cells		
Cc1cc([C@@H](C)Oc2ccc(Cl)nc2S(N)(=O)=O)c2oc(-c3cn(C)cn3)c(C)c(=O)c2c1 [Example 91C, 6-Chloro-3-[(1R)-1-[3,6-dimethyl-2-(1-methylimidazol-4-yl)-4-oxo-chromen-8-yl]ethoxy]pyridine-2-sulfonamide]	less than 50 μL/min/1×10^6 cells	greater than 20 ×	
Cc1cc([C@@H](C)Oc2ccc(Cl)nc2C(N)=O)c2oc(-c3ccc4[nH]c(=O)ccc4c3)c(C)c(=O)c2c1 [Example 105A, 6-Chloro-3-[(1R)-1-[3,6-dimethyl-4-oxo-2-(2-oxo-1H-quinolin-6-yl)chromen-8-yl]ethoxy]pyridine-2-carboxamide]	less than 50 μL/min/1×10^6 cells		
Cc1cc([C@@H](C)Oc2ccc(Cl)nc2S(N)(=O)=O)c2oc(C3CC34COC4)c(C)c(=O)c2c1 (single isomer, unassigned) [Example 113C]	less than 50 μL/min/1×10^6 cells		
Cc1cc([C@@H](C)Oc2ccc(Cl)nc2S(N)(=O)=O)c2oc(C3COC3)c(C)c(=O)c2c1 [Example 114C, 6-Chloro-3-[(1R)-1-[3,6-dimethyl-2-(oxetan-3-yl)-4-oxo-chromen-8-yl]ethoxy]pyridine-2-sulfonamide]	less than 50 μL/min/1×10^6 cells		
Cc1cc([C@@H](C)Oc2ccc(Cl)nc2-c2noc(=O)[nH]2)c2oc(-c3cnn4c3CCC4)c(C)c(=O)c2c1 [Example 102A, 3-[6-Chloro-3-[(1R)-1-[2-(5,6-dihydro-4H-pyrrolo[2,1-e]pyrazol-3-yl)-3,6-dimethyl-4-oxo-chromen-8-yl]ethoxy]-2-pyridyl]-4H-1,2,4-oxadiazol-5-one]	less than 50 μL/min/1×10^6 cells	greater than 20 ×	
Cc1cc([C@@H](C)Oc2ccc(Cl)nc2C(N)=O)c2oc(-c3cnc4scnc4c3)c(C)c(=O)c2c1 [Example 126A, 6-Chloro-3-[(1R)-1-(3,6-dimethyl-4-oxo-2-thiazolo[5,4-b]pyridin-6-yl-chromen-8-yl)ethoxy]pyridine-2-carboxamide]	less than 50 μL/min/1×10^6 cells		less than 3.0 ×
Cc1cc([C@@H](C)Oc2ccc(Cl)nc2S(N)(=O)=O)c2oc(-c3cnn(C)c3)c(Cl)c(=O)c2c1 (single isomer, unassigned) [Example 111C]	less than 50 μL/min/1×10^6 cells		
Cc1cc([C@@H](C)Oc2ccc(Cl)nc2C(N)=O)c2oc(-c3cnc4oc(C)nc4c3)c(C)c(=O)c2c1 [Example 130A, 6-Chloro-3-[(1R)-1-[3,6-dimethyl-2-(2-methyloxazolo[5,4-b]pyridin-6-yl)-4-oxo-chromen-8-yl]ethoxy]pyridine-2-carboxamide]	less than 50 μL/min/1×10^6 cells		
Cc1cc([C@@H](C)Oc2ccc(Cl)nc2S(N)(=O)=O)c2oc(C3CC3)c(C)c(=O)c2c1 [Example 74A, 6-Chloro-3-[(1R)-1-(2-cyclopropyl-3,6-dimethyl-4-oxo-chromen-8-yl)ethoxy]pyridine-2-sulfonamide]	less than 50 μL/min/1×10^6 cells		
Cc1cc([C@@H](C)Oc2cccc(F)c2-c2noc(=O)[nH]2)c2oc(-c3ccccc3)c(C)c(=O)c2c1 [Example 5, 3-[2-[(1R)-1-(3,6-Dimethyl-4-oxo-2-phenyl-chromen-8-yl)ethoxy]-6-fluoro-phenyl]-4H-1,2,4-oxadiazol-5-one]	less than 50 μL/min/1×10^6 cells	greater than 20 ×	
Cc1cc([C@@H](C)Oc2ccc(Cl)nc2S(N)(=O)=O)c2oc(-c3cnn(C)c3)c(C)c(=O)c2c1 [Example 14A, 6-Chloro-3-[(1R)-1-[3,6-dimethyl-2-(1-methylpyrazol-4-yl)-4-oxo-chromen-8-yl]ethoxy]pyridine-2-sulfonamide]	less than 50 μL/min/1×10^6 cells	greater than 50 ×	
Cc1cc([C@@H](C)Oc2ccc(Cl)nc2C(N)=O)c2oc(-c3cnn4c3CCC4)c(C)c(=O)c2c1 [Example 123A, 6-Chloro-3-[(1R)-1-[2-(5,6-dihydro-4H-pyrrolo[2,1-e]pyrazol-3-yl)-3,6-dimethyl-4-oxo-chromen-8-yl]ethoxy]pyridine-2-carboxamide]	less than 50 μL/min/1×10^6 cells		less than 3.0 ×
Cc1cc([C@@H](C)Oc2ccc(Cl)nc2-c2noc(=O)[nH]2)c2oc(-c3ccc4c(c3)OC(F)(F)O4)c(C)c(=O)c2c1 [Example 46A, 3-[6-Chloro-3-[(1R)-1-[2-(2,2-difluoro-1,3-benzodioxol-5-yl)-3,6-dimethyl-4-oxo-chromen-8-yl]ethoxy]-2-pyridyl]-4H-1,2,4-oxadiazol-5-one]	less than 50 μL/min/1×10^6 cells	greater than 20 ×	
Cc1cc([C@@H](C)Oc2ccc(Cl)nc2S(N)(=O)=O)c2oc(-c3cnc(C4CC4)nc3)c(C)c(=O)c2c1 [Example 83A, 6-Chloro-3-[(1R)-1-[2-(2-cyclopropylpyrimidin-5-yl)-3,6-dimethyl-4-oxo-chromen-8-yl]ethoxy]pyridine-2-sulfonamide]	less than 50 μL/min/1×10^6 cells		less than 3.0 ×
Cc1cc([C@@H](C)Oc2ccc(Cl)nc2C)c2oc(-c3ccccc3)c(C)c(=O)c2c1 [Example 1, 8-[(1R)-1-[(6-Chloro-2-methyl-3-pyridyl)oxy]ethyl]-3,6-dimethyl-2-phenyl-chromen-4-one]	less than 50 μL/min/1×10^6 cells	greater than 20 ×	
Cc1cc([C@@H](C)Oc2ccc(F)c(F)c2C(N)=O)c2oc(-c3cnn(C)c3)c(C)c(=O)c2c1 [Example 31A, 6-[(1R)-1-[3,6-Dimethyl-2-(1-methylpyrazol-4-yl)-4-oxo-chromen-8-yl]ethoxy]-2,3-difluoro-benzamide]	less than 50 μL/min/1×10^6 cells		
